These results are taken from publication PMC12040169 (PLOS Biology, 2025).

The other results are listed elsewhere or left out.

For this test, the system named is T1, CTL2-GFP (C. trachomatis L2/434/Bu, GFP-expressing).
T1 construct: L2/434/Bu, GFP-expressing
More on the design: species or system HeLa; Intracellular C. trachomatis growth in HeLa cells, bulk GFP fluorescence relative to DMSO. As to conditions: bulk GFP, single well; 28.5 h, 10 µM; inhibitor.
On to `Cc1cc(-c2cn(C)nc2C2CCCCN2C(=O)C2CCCC2)on1` (stereo not shown) [CBK283404], for which the “% of control remaining” value stood at 165.333%.

Regarding `Cc1ccc(S(=O)(=O)NCCOc2ccc(Cl)cc2)cc1[N+](=O)[O-]` [CBK263268], the “% of control remaining” value was 102.172%.

For `CCN(CC)S(=O)(=O)c1c(C)[nH]c(=O)[nH]c1=O` [CBK018721], the “% of control remaining” value was found to be 100.322%.

Consider `COc1ccc(-c2cc(C(=O)NCCc3ccccn3)cnc2-c2cccc(C)c2)cc1` [CBK036730], for which the “% of control remaining” value is on record as 111.64%.

For the compound `COc1ccc(-c2nc(NS(C)(=O)=O)cc3cccnc23)cc1C` [CBK085677], the “% of control remaining” value was 100%.

For the compound `CC(=O)Nc1ccc(CCOc2nccnc2/C=C/c2ccccc2)cc1` [CBK106880], the “% of control remaining” value was 163.373%.

Consider `CCOC(=O)c1cnc(SC(C)C(=O)N2CCc3ccccc32)nc1N` (stereo not shown) [CBK305007], for which the “% of control remaining” value was 125.724%.

Turning to `Cc1ccc(C(=O)O)cc1N1C(=O)c2ccc(S(=O)(=O)c3ccc(C(=O)O)cc3)cc2C1=O` [CBK262747], the “% of control remaining” value turned out to be 114.358%.

Regarding `CC(=O)Nc1cccc(NC(=O)c2cccc(Cn3cc(Cl)cn3)c2)c1` [CBK265899], the “% of control remaining” value is 122.906%.

As for `Cc1nc2nc(SCc3cc(=O)n4ccccc4n3)nn2c(C)c1Cc1ccccc1` [CBK294460], the “% of control remaining” value stood at 102.355%.

`COc1cccc(CN2CCC(Cc3ccccc3-c3ccc(C)cc3C)(C(=O)O)CC2)c1` [CBK286420]: the “% of control remaining” value was determined as 136.6%.

With `COc1cc(OC)cc(-c2nnc(SCc3cccc(C(=O)O)c3)[nH]2)c1` [CBK268736], the “% of control remaining” value was determined as 95.3908%.

As to `O=C(COc1ccc2c3c(c(=O)oc2c1)CCC3)Nc1ccc(S(=O)(=O)N2CCOCC2)cc1` [CBK265640], the “% of control remaining” value is on record as 100%.

`O=C(Nc1cccc(I)c1)c1ccc(Oc2ccc(C(=O)Nc3cccc(I)c3)cc2)cc1` [CBK261201]: the “% of control remaining” value came out at 110%.

Regarding `CC(C)(Oc1ccc(Br)cc1)C(=O)NCCOc1ccccc1` [CBK268287], the “% of control remaining” value was found to be 97.9143%.

Consider `Cc1ccc(OCC(=O)NC(=S)Nc2cc(-c3nc4ncccc4o3)ccc2Cl)cc1` [CBK265214], for which the “% of control remaining” value is 106.848%.

As to `CC(=O)Oc1cc(Cl)ccc1C(=O)Nc1nnc(C(F)(F)F)s1` [CBK017569], the “% of control remaining” value came to 116.431%.

Take `Cc1nnc(NCCN2CCOCC2)[nH]c1=O` [CBK267912]: the “% of control remaining” value is on record as 85.5624%.

Consider `Oc1nc(CN2CCN(Cc3ccc4c(c3)OCO4)CC2)nc2ccccc12` [CBK074355], for which the “% of control remaining” value was determined as 113.606%.

In the case of `NNC(=O)CSc1nnc2ccc(C(F)(F)F)cn12` [CBK006897], the “% of control remaining” value amounted to 114.241%.

With `CN1CCC(N(C)C(=O)Nc2ccc(C(N)=O)cc2)C1` (stereo not shown) [CBK156015], the “% of control remaining” value was 100%.

As for `CCc1c(C)sc2ncn(C3CCN(C(=O)C(C)C)CC3)c(=O)c12` [CBK282377], the “% of control remaining” value was determined as 109.061%.

In the case of `Cc1cc(CNC(=O)[C@@H]2Cc3cn(C)c4cccc(c34)[C@H](CC(C)C)N2)no1` [CBK289420], the “% of control remaining” value was 130.941%.

As for `Nc1ncc(-c2cccc(C(=O)O)c2)nc1-c1ccc(O)cc1` [CBK200420], the “% of control remaining” value turned out to be 132.82%.

For `O=C(Nc1ccnn1Cc1cccs1)N1Cc2cnn(CCO)c2C1` [CBK307150], the “% of control remaining” value came to 119.319%.

`N#Cc1c(-c2ccc(Cl)cc2)c[nH]c1N` [CBK019323]: the “% of control remaining” value stood at 108.935%.

Turning to `O=C(NC1CCN(Cn2nnc3ccccc3c2=O)CC1)C1CC1` [CBK305584], the “% of control remaining” value was 140.134%.

Take `CC(=O)c1ccc(NC(=O)CC2SC(=N)NC2=O)cc1` (stereo not shown) [CBK265625]: the “% of control remaining” value turned out to be 100%.

For `CCOc1ccc(-c2cncc(N3CCN(C(=O)c4ccco4)CC3)n2)cc1` [CBK065860], the “% of control remaining” value came to 94.2189%.

`CC(=O)NCc1cccc(-c2cncc(C(=O)Nc3ccc4c(c3)OCCO4)c2)c1` [CBK161009T]: the “% of control remaining” value is reported as 82.5231%.

Consider `O=C(NCc1ccco1)/C(=C\c1ccccc1)NC(=O)c1ccc(Br)cc1` [CBK263701], for which the “% of control remaining” value is on record as 132.262%.

As to `CN(C)c1nc(NCc2ccccc2)nc(SCC(=O)Nc2ccccc2Cl)n1` [CBK267190], the “% of control remaining” value worked out at 153.565%.

As for `Cc1cc(C2CCCN2C(=O)c2cnn3c(C)cc(C)nc23)on1` (stereo not shown) [CBK305634], the “% of control remaining” value is recorded as 129.855%.

On to `COc1cc(-c2ccc(N)c3ccccc23)cc(OC)c1OC` [CBK084332], for which the “% of control remaining” value came to 115.712%.

`COc1ccc(-c2cccc(N3CCN(CCN4CCCC4)CC3)n2)cc1OC` [CBK037680]: the “% of control remaining” value worked out at 116.248%.

As for `CCC(C(=O)Nc1ccc(OC(C)=O)cc1C(=O)O)c1ccccc1` (stereo not shown) [CBK269685], the “% of control remaining” value was 101.765%.

As for `CCOc1ccc(CN2CCN(CCCc3ccccc3)CC2)cc1` [CBK264153G], the “% of control remaining” value is reported as 100%.

Regarding `C=Cn1ncc(CN(C)Cc2nc3ccccc3[nH]2)c1C` [CBK283170], the “% of control remaining” value was determined as 104.518%.

As for `Cc1ccccc1Nc1nc(N)nc(CN2CCCC2)n1` [CBK306152], the “% of control remaining” value was 85.9019%.

Turning to `CCOc1ccccc1OCCCOc1ccc(C(=O)O)cc1` [CBK295144], the “% of control remaining” value is reported as 115.947%.

With `Nc1nc(CCC(=O)N2CCCC(c3cc(O)ncn3)C2)cs1` (stereo not shown) [CBK306976], the “% of control remaining” value stood at 123.955%.

As for `CCC(C)c1ccc(NC(C)C(=O)Nc2ccc3[nH]c(=O)[nH]c3c2)cc1` (stereo not shown) [CBK296694], the “% of control remaining” value is on record as 152.414%.

With `O=C(CCn1c(C(F)F)cc2cccnc21)NCc1ccncc1` [CBK285027], the “% of control remaining” value is 97.0268%.

Consider `CS(=O)(=O)N(Cc1ccccc1F)c1ccccc1C(=O)O` [CBK287239], for which the “% of control remaining” value is 135.215%.

Regarding `COc1cccc(CN(C)C2CCN(C)CC2)c1OC` [CBK261532], the “% of control remaining” value was 109.879%.

`CC(=O)Nc1cccc(-c2cnc(N)c(N3CCN(CCN(C)C)CC3)n2)c1` [CBK063472]: the “% of control remaining” value was found to be 163.686%.

On to `COc1ccc2c(c1)nc(SCC(O)c1ccccc1)n2C` (stereo not shown) [CBK262508], for which the “% of control remaining” value is given as 113.614%.

With `O=C(O)CSc1nnc(-c2ccc(S(=O)(=O)N3CCCCCC3)cc2)o1` [CBK300508], the “% of control remaining” value stood at 143.359%.

Regarding `OCCN1CCN(c2nc(C3CCOC3)cn3ccnc23)CC1` (stereo not shown) [CBK037931], the “% of control remaining” value worked out at 177.421%.

As to `Cc1nn(C)c(C)c1C(C)NS(=O)(=O)Cc1cccc(F)c1` (stereo not shown) [CBK281396], the “% of control remaining” value turned out to be 101.732%.

With `OC(Cn1c(Cc2ccccc2)nc2ccccc21)Cn1c2ccccc2c2ccccc21` (stereo not shown) [CBK262570], the “% of control remaining” value is 100%.

For the compound `O=C(O)C1CCN(c2c(-c3ccccc3)c3cc(Cl)ccc3[nH]c2=O)CC1` [CBK287198], the “% of control remaining” value is listed as 127.727%.

Take `N#Cc1ccc(-n2cc(-c3ccc(F)cc3F)nn2)cc1` [CBK112990]: the “% of control remaining” value amounted to 133.41%.

With `CSc1nnc(CCCNC(=O)c2cccc(C#N)c2)n1C1CCCC1` [CBK305459], the “% of control remaining” value was found to be 111.268%.

Take `COc1ccc(NS(=O)(=O)c2ccc(NC(=O)c3nc4nc(C)cc(C(F)F)n4n3)cc2)cc1` [CBK266123]: the “% of control remaining” value is on record as 140.329%.

`CCC(CO)Nc1cncc(-c2cccc(F)c2)n1` (stereo not shown) [CBK065752]: the “% of control remaining” value amounted to 97.3442%.

Consider `COc1cc(Nc2nc(-c3ccco3)cn3ccnc23)cc(OC)c1OC` [CBK037413], for which the “% of control remaining” value amounted to 191.603%.

Take `CCC(=O)NCCCn1c(-c2cccnc2C)cc2cccnc21` [CBK282646]: the “% of control remaining” value worked out at 119.055%.

`CN(C(=O)Cn1cc(C(=O)NCC(C)(C)c2ccc(F)cc2)ccc1=O)c1ccccc1` [CBK285662]: the “% of control remaining” value was found to be 116.09%.

For the compound `O=c1c(Cc2ccccc2)c(O)c2cccc3c2n1CCC3` [CBK291166], the “% of control remaining” value came out at 133.473%.

`Cc1cc(C)nc(NS(=O)(=O)c2ccc(Nc3ccc4nonc4c3[N+](=O)[O-])cc2)n1` [CBK261444]: the “% of control remaining” value worked out at 34.2368%.

For the compound `CCCCN=C(NCCCn1cccn1)N1CCCN(C(C)=O)CC1` [CBK304273I], the “% of control remaining” value amounted to 108.108%.

For the compound `COC(=O)c1ccc(CN2CCC(Oc3nccnc3OCc3ccc(Cl)c(Cl)c3)CC2)o1` [CBK153782], the “% of control remaining” value amounted to 116.625%.

For the compound `CO/N=C(/C(=O)O)c1cn2cc(Br)ccc2n1` [CBK260925G], the “% of control remaining” value was 115.817%.

In the case of `CCOC(=O)N1CCN(c2cccc3[nH]c(C(=O)O)cc23)CC1` [CBK083477], the “% of control remaining” value amounted to 119.232%.

`CC(=O)c1nnn(-c2cc(Cl)ccc2Cl)c1C` [CBK085973]: the “% of control remaining” value was determined as 84.1204%.

Consider `CCNC(=O)Nc1nc2cccnc2cc1-c1ccccc1` [CBK081239], for which the “% of control remaining” value came out at 121.627%.

As to `O=C(O)CCC(=O)Nc1ccc(NC(=O)c2ccccc2)c(Cl)c1` [CBK263478], the “% of control remaining” value is listed as 100%.

For the compound `CSC(=S)n1c(C)nc2ccccc21` [CBK018539], the “% of control remaining” value was determined as 106.12%.

As for `O=[N+]([O-])c1cc(F)ccc1Oc1cccc2c1CCCC2` [CBK002559], the “% of control remaining” value was found to be 98.7259%.

For `CN1CCN(c2nc(NCCNc3ccc([N+](=O)[O-])cc3)c3ccccc3n2)CC1` [CBK266949], the “% of control remaining” value is listed as 81.2927%.

As for `COC(=O)C1=C(C)OC(n2cccc2)=C(C#N)C1c1cc(OC)c(O)c(OC)c1` (stereo not shown) [CBK293994], the “% of control remaining” value was found to be 152.248%.

Turning to `CCCn1c(=S)[nH]c2cc(C(=O)NCCc3ccc(Cl)cc3)ccc2c1=O` [CBK294445], the “% of control remaining” value is on record as 135.701%.

On to `COc1ccc2c(c1)C1(CC(=O)N(Cc3ccccc3)C1=O)C(=O)N2CCCN1C(=O)c2ccccc2C1=O` (stereo not shown) [CBK075501], for which the “% of control remaining” value came to 173.118%.

For the compound `N[C@H]1C[C@H](c2nnc(Cn3ncc(N4CCCC4)cc3=O)n2C2CC2)C1` [CBK307039], the “% of control remaining” value came to 98.2257%.

On to `CC(C(=O)Nc1ccc2oc(-c3ccccc3)nc2c1)(c1ccccc1)c1ccccc1` [CBK263928], for which the “% of control remaining” value came to 130.449%.

In the case of `Cn1c(CCNC(=O)c2cccs2)nc2cc([N+](=O)[O-])ccc21` [CBK268511], the “% of control remaining” value is 145.189%.

On to `CC1(C)Cc2c(cnn2-c2ccccc2)C(NS(=O)(=O)C2CC2)C1` (stereo not shown) [CBK307351], for which the “% of control remaining” value came to 124.139%.

`Cc1cc2c(o1)c1cnn(CC(=O)N3CCC(C)CC3)c(=O)c1n2C` [CBK284236]: the “% of control remaining” value is given as 134.554%.
